Measured values taken from doi:10.1101/2022.06.21.497121.
Results are given in words; binding and its absence hold for the method and conditions named. A result given as binding can be weak or reduced; the word gives no strength.

Target: PPE68 of M. marinum, endogenous (M. marinum (endogenous in M. marinum M))
Test: native gel or EMSA

B1: MMAR_2894 (M. marinum-specific PE protein) (protein, UniProt B2HE54 1-230)
chain: MDPMSHDPAAGDIGSQLVDIGTQGISAGTTAAMTVLTGLIPAGAEEVSAQAVLAFAQEAATMLASNVAAQEELMRTGTALSDIARMYGDADDVAADALTFRGAAMSNPAAAGSSGFATGAGLRAGAFATEAGPAAQPLVSQLIGSQSSPMAAAAANAGSSAMSGAAPMGSGMGAGSSAGGASKPGLVSATGPADEEEERKDSAAAGEQNGLADVGQREDASGSHPVERLM
- binding: binds
